Laboratory results reported in PubChem BioAssay AID248 (DTP/NCI, 2004).
The list is a part of this screen's results and no random one: it gathers tests that were run many times, whatever their T/C, doses with no T/C, and many T/C values between a quarter and a half above the control. Further doses and runs are listed elsewhere. T/C is the treated group as % of the vehicle group. Some doses have a count of surviving animals in place of a T/C: the source files T/C as zero there, which appears to mark a toxic dose or a test without result, not a measured value. Some survivor counts are full or nearly so, which does not show that the dose was tolerated: survival well below the control is almost never listed, so the zero probably covers shortened survival too. Survivors were counted at the toxicity check, usually on the fifth day, unless a day is given; later deaths do not show. Schedules are NCI's codes, taken here to give the interval after Q, in days (D) or hours (H), and the number of doses after X. Some schedule codes hold Z or #, which are not explained here. Some doses were run more than once; the values are given in rising order. Some structures stand for samples that the source files as different forms (salt, stereo form or complex); doses refer to the form tested. Where survival is the endpoint, this PubChem deposit counts one and a half times the control or more as active, and values a quarter to a half above the control carry no call in these data; other NCI protocols may use other cut-offs.

Tested on: L1210 leukemia ip in BDF1 mice, survival T/C
Assay: NCI In Vivo Anticancer Drug Screen. Data for tumor model L1210 Leukemia (intraperitoneal) in B6D2F1 (BDF1) mice
Details: T/C endpoint: mean survival time, higher T/C = longer survival
[1] = dose: 100.0 mg/kg/injection, schedule: Q04DX003 (ip), vehicle: saline with Tween-80
[2] = dose: 200.0 mg/kg/injection, schedule: Q04DX003 (ip), vehicle: saline with Tween-80
[3] = dose: 400.0 mg/kg/injection, schedule: Q04DX003 (ip), vehicle: saline with Tween-80
[4] = dose: 400.0 mg/kg/injection, schedule: Q01DX009 (ip), vehicle: saline
[5] = dose: 300.0 mg/kg/injection, schedule: Q01DX001 (ip), vehicle: other
[6] = dose: 200.0 mg/kg/injection, schedule: Q01DX009 (ip), vehicle: saline
[7] = dose: 200.0 mg/kg/injection, schedule: Q01DX009 (ip), vehicle: Klucel (hydroxypropylcellulose) (HPC)
[8] = dose: 40.0 mg/kg/injection, schedule: Q01DX001 (ip), vehicle: saline
[9] = dose: 400.0 mg/kg/injection, schedule: Q01DX009 (ip), vehicle: saline with Tween-80
[10] = dose: 75.0 mg/kg/injection, schedule: Q01DX001 (ip), vehicle: saline
[11] = dose: 150.0 mg/kg/injection, schedule: Q01DX001 (ip), vehicle: saline
[12] = dose: 300.0 mg/kg/injection, schedule: Q01DX001 (ip), vehicle: saline
[13] = dose: 100.0 mg/kg/injection, schedule: Q01DX009 (ip), vehicle: saline with Tween-80

For `CC1(C)N=C(N)N=C(N)N1c1ccc(CCCCc2ccccc2Cl)cc1`, the survivor count (dose: 50.0 mg/kg/injection, schedule: Q01DX001 (ip), vehicle: Klucel (hydroxypropylcellulose) (HPC)) was 3 of 6, the survivor count (dose: 100.0 mg/kg/injection, schedule: Q01DX001 (ip), vehicle: Klucel (hydroxypropylcellulose) (HPC)) was 0 of 6 and the survivor count [1] was 1 of 6. The survivor count (dose: 200.0 mg/kg/injection, schedule: Q01DX001 (ip), vehicle: Klucel (hydroxypropylcellulose) (HPC)) was 1 of 6, the survivor count [2] was 0 of 6 and the survivor count (dose: 400.0 mg/kg/injection, schedule: Q01DX001 (ip), vehicle: Klucel (hydroxypropylcellulose) (HPC)) was 0 of 6. The survivor count [3] was 1 of 6.

With `COc1cc2cc(-c3cc(OC)c(OC)c(OC)c3)c3c(c2cc1OC)CNC3=O` the survivor count [4] was 5 of 6.

With `NC1=CC(=O)C(=O)c2cccnc21` the survivor count (dose: 150.0 mg/kg/injection, schedule: Q01DX001 (ip), vehicle: other) was 2 of 7 and the survivor count [5] was 0 of 7.

With `Nc1cccc(C(F)(F)F)c1` the survivor count [6] was 3 of 6 and the survivor count [4] was 0 of 6.

`CCCCCCCCC(O)CC` (centres undefined) was tested, and the survivor count [7] was 4 of 6.

For `CC(C)(NC(=O)N(CCCl)N=O)C(=O)O`, the T/C (dose: 54.0 mg/kg/injection, schedule: Q01DX001 (ip), vehicle: saline with Tween-80) was 129 % of control and the T/C (dose: 80.0 mg/kg/injection, schedule: Q01DX001 (ip), vehicle: saline with Tween-80) was 132 % of control.

In the case of `O=C1CCN(Cc2ccccc2)C(=S)N1`, the survivor count (dose: 200.0 mg/kg/injection, schedule: Q01DX Z (ip), vehicle: methylcellulose (MC)) is reported as 3 of 6.

For `COc1ccc(C[As+](Cc2ccccc2)(Cc2ccc(OC)cc2)Cc2ccc(OC)cc2)cc1`, the survivor count [8] was 4 of 6 and the survivor count (dose: 80.0 mg/kg/injection, schedule: Q01DX001 (ip), vehicle: saline) was 0 of 6.

`CCOc1ccc(OC/C=C(\C)CCC=C(C)C)cc1` was tested, and the survivor count [9] was 3 of 3.

`CC1CCC(NC(=O)N(CCF)N=O)CC1` (centres undefined) was tested, and the T/C (dose: 12.0 mg/kg/injection, schedule: Q01DX001 (ip), vehicle: other) was 131 % of control, the T/C (dose: 18.0 mg/kg/injection, schedule: Q01DX001 (ip), vehicle: other) was 148 % of control and the survivor count (dose: 90.0 mg/kg/injection, schedule: Q01DX001 (ip), vehicle: other) was 5 of 10. For the same compound, the survivor count (dose: 135.0 mg/kg/injection, schedule: Q01DX001 (ip), vehicle: other) was 2 of 10 and the survivor count (dose: 200.0 mg/kg/injection, schedule: Q01DX001 (ip), vehicle: other) was 0 of 10.

For `CN=C(N)c1ccc(N=C(N)c2ccc(N=C(N)c3ccc(N)cc3)cc2)cc1`, the T/C (dose: 17.0 mg/kg/injection, schedule: Q01DX Z (ip), vehicle: water) was 145 % of control, the T/C (dose: 34.0 mg/kg/injection, schedule: Q01DX Z (ip), vehicle: water) was 148 % of control and the survivor count (dose: 70.0 mg/kg/injection, schedule: Q01DX015 (ip), vehicle: saline) was 0 of 6. For the same compound, the survivor count [10] was 0 of 6, the survivor count (dose: 85.0 mg/kg/injection, schedule: Q01DX015 (ip), vehicle: saline) was 0 of 6 and the survivor count (dose: 100.0 mg/kg/injection, schedule: Q01DX001 (ip), vehicle: saline) was 1 of 6. The survivor count (dose: 500.0 mg/kg/injection, schedule: Q01DX Z (oral), vehicle: water) was 0 of 6.

`CN=C(NN)NN` was tested, and the survivor count [8] was 0 of 6, the survivor count [10] was 0 of 6 and the survivor count [11] was 0 of 6. The survivor count [12] was 0 of 6.

With `C=CCc1ccc(OCCOCCNC2C(C)CCCC2(C)C)c(OC)c1` (centres undefined) the survivor count (dose: 100.0 mg/kg/injection, schedule: Q04DX003 (ip), vehicle: Klucel (hydroxypropylcellulose) (HPC)) was 0 of 6, the survivor count (dose: 200.0 mg/kg/injection, schedule: Q04DX003 (ip), vehicle: Klucel (hydroxypropylcellulose) (HPC)) was 0 of 6 and the survivor count (dose: 400.0 mg/kg/injection, schedule: Q04DX003 (ip), vehicle: Klucel (hydroxypropylcellulose) (HPC)) was 0 of 6.

In the case of `CC1=C(Cl)C(=O)C(C)=C(Cl)C1=O`, the survivor count [10] is reported as 2 of 6, the survivor count [11] is reported as 0 of 6 and the survivor count [12] is reported as 0 of 6.

In the case of `CCCCC(CC)CNCCOC(=O)c1ccc(N)cc1` (centres undefined), the survivor count [5] is reported as 2 of 6.

`CC(C)OCCCN` was tested, and the survivor count (dose: 400.0 mg/kg/injection, schedule: Q01DX001 (ip), vehicle: carboxymethylcellulose (CMC)) was 0 of 4.

In the case of `CNC(C)Cc1ccc2c(c1)OCO2` (centres undefined), the survivor count (dose: 100.0 mg/kg/injection, schedule: Q01DX009 (ip), vehicle: saline) is reported as 3 of 6, the survivor count (dose: 150.0 mg/kg/injection, schedule: Q04DX003 (ip), vehicle: saline) is reported as 3 of 6 and the survivor count [6] is reported as 0 of 6. The survivor count (dose: 300.0 mg/kg/injection, schedule: Q04DX003 (ip), vehicle: saline) was 0 of 6.

`CC(C)C1=CC2=CCC3C(C)(CN)CCCC3(C)C2CC1CCN` (centres undefined) was tested, and the survivor count (dose: 10.0 mg/kg/injection, schedule: Q04DX003 (ip), vehicle: saline with Tween-80) was 2 of 6, the survivor count (dose: 20.0 mg/kg/injection, schedule: Q04DX003 (ip), vehicle: saline with Tween-80) was 2 of 6 and the survivor count [1] was 0 of 6. For the same compound, the survivor count [2] was 0 of 6 and the survivor count [3] was 0 of 6.

With `CC1NCCNCCNCCNC(C)c2cccc1n2` (centres undefined) the survivor count (dose: 100.0 mg/kg/injection, schedule: Q04DX002 (ip), vehicle: saline) was 1 of 3, the survivor count (dose: 200.0 mg/kg/injection, schedule: Q04DX002 (ip), vehicle: saline) was 0 of 3 and the survivor count (dose: 400.0 mg/kg/injection, schedule: Q04DX002 (ip), vehicle: saline) was 0 of 3.

`CCCC(C)c1cc([N+](=O)[O-])cc([N+](=O)[O-])c1O` (centres undefined) was tested, and the survivor count [13] was 0 of 6, the survivor count (dose: 200.0 mg/kg/injection, schedule: Q01DX009 (ip), vehicle: saline with Tween-80) was 0 of 6 and the survivor count [9] was 0 of 6.

In the case of `O=C(CNC1=NCCN1)Nc1ccc(NC(=O)c2ccc(C(=O)Nc3ccc(NC(=O)CNC4=NCCN4)cc3)cc2)cc1`, the T/C (dose: 20.0 mg/kg/injection, schedule: Q01DX Z (ip), vehicle: water) is reported as 136 % of control.

For `Cc1ccccc1C(=O)C(C#N)c1ccccc1` (centres undefined), the survivor count [1] was 6 of 6, the survivor count (dose: 200.0 mg/kg/injection, schedule: Q01DX001 (ip), vehicle: saline with Tween-80) was 3 of 6 and the survivor count (dose: 200.0 mg/kg/injection, schedule: Q04DX002 (ip), vehicle: saline with Tween-80) was 0 of 3 and 3 of 6. The survivor count (dose: 400.0 mg/kg/injection, schedule: Q04DX002 (ip), vehicle: saline with Tween-80) was 0 of 3 and 0 of 6.

For `CCN(CC)c1ccc(C(=O)OCCNC2CCCCC2)cc1`, the survivor count (dose: 300.0 mg/kg/injection, schedule: Q01DX001 (ip), vehicle: carboxymethylcellulose (CMC)) was 2 of 6.

`CNC1(c2ccccc2)CC1` was tested, and the survivor count (dose: 300.0 mg/kg/injection, schedule: Q04DX002 (ip), vehicle: saline) was 1 of 3.

`NNC(=O)Cc1csc2ccccc12` was tested, and the survivor count (dose: 187.0 mg/kg/injection, schedule: Q01DX Z (ip), vehicle: carboxymethylcellulose (CMC)) was 5 of 6.

With `CCOC(=O)C(=Cc1ccc(Cl)cc1)C(=O)OCC` the survivor count (dose: 100.0 mg/kg/injection, schedule: Q01DX009 (ip), vehicle: Klucel (hydroxypropylcellulose) (HPC)) was 6 of 6, the survivor count [7] was 4 of 6 and the survivor count (dose: 400.0 mg/kg/injection, schedule: Q01DX009 (ip), vehicle: Klucel (hydroxypropylcellulose) (HPC)) was 0 of 6.

In the case of `CCCn1c2c(c(=O)n(CC)c1=O)S(=O)C(OCC)C(=O)N2` (centres undefined), the survivor count (dose: 78.0 mg/kg/injection, schedule: Q01DX Z (ip), vehicle: other) is reported as 6 of 6.

With `O=C(CCCN1CCC(O)CC1)c1ccc(N2CC=C(c3ccccc3)CC2)cc1` the survivor count (dose: 400.0 mg/kg/injection, schedule: Q04DX002 (ip), vehicle: Klucel (hydroxypropylcellulose) (HPC)) was 3 of 3.

For `COC(=O)C(CCCCN=Cc1ccccc1O)N=Cc1ccccc1O.[Cu]` (centres undefined), the survivor count [13] was 3 of 6, the survivor count [2] was 0 of 6 and the survivor count [3] was 0 of 6.
